Experimental data from the supplement of paper PMC10382679.
Single values of this set are uncertain.

B1: Rpb7; numbered along this chain (parent)
chain: MFFIKDLSLNITLHPSFFGPRMKQYLKTKLLEEVEGSCTGKFGYILCVLDYDNIDIQRGRILPTDGSAEFNVKYRAVVFKPFKGEVVDGTVVSCSQHGFEVQVGPMKVFVTKHLMPQDLTFNAGSNPPSYQSSEDVITIKSRIRVKIEGCISQVSSIHAIGSIKEDYLGAI

What was measured:
[1] = variants of: B1; assay: log2 fold change of mutant abundance, UV-irradiated vs unirradiated; higher = more UV resistant (enriched after UV); conditions: with Saccharomyces cerevisiae rad7Δ rad26Δ; UV dose (J/m2): 10; genetic background: rad7Δ rad26Δ rpb7Δ + plasmid RPB7 library; outgrowth: 10 cell divisions
[2] = variants of: B1; assay: NOISeq theta enrichment statistic, UV-irradiated vs unirradiated (dimensionless); higher = more UV resistant (enriched after UV); conditions: with Saccharomyces cerevisiae rad7Δ rad26Δ; UV dose (J/m2): 10; genetic background: rad7Δ rad26Δ rpb7Δ + plasmid RPB7 library; outgrowth: 10 cell divisions

Row | Variant | log2 fold change of mutant abundance [1] | NOISeq theta enrichment statistic [2]
1 | MFFIKDLSLNITLHPSFFGPRMKQYLKTKLLEEVEGSCTGKFGYILCVLDYDNIDIQRGRILPTDGSAEFNVKYRAVVFKPFKGEVVDGTVISCSQHGFEVQVGPMKVFVTKHLMPQDLTFNAGSNPPSYQSSEDVITIKSRIRVKIEGCISQVSSIHAIGSIKEDYLGAI | -0.0262 | -0.136
2 | MFFIKDLSLNITLHPSFFGPRMKQYLKTKLLEEVEGSCTGKFGYILCVLDYDNIDIQRGRILPTDGSAEFNVKYRAVVFKPFKGEVVDGTVLSCSQHGFEVQVGPMKVFVTKHLMPQDLTFNAGSNPPSYQSSEDVITIKSRIRVKIEGCISQVSSIHAIGSIKEDYLGAI | 0.0907 | 0.19
3 | MFFIKDLSLNITLHPSFFGPRMKQYLKTKLLEEVEGSCTGKFGYILCVLDYDNIDIQRGRILPTDGSAEFNVKYRAVVFKPFKGEVVDGTVMSCSQHGFEVQVGPMKVFVTKHLMPQDLTFNAGSNPPSYQSSEDVITIKSRIRVKIEGCISQVSSIHAIGSIKEDYLGAI | 0.0861 | 0.0754
4 | MFFIKDLSLNITLHPSFFGPRMKQYLKTKLLEEVEGSCTGKFGYILCVLDYDNIDIQRGRILPTDGSAEFNVKYRAVVFKPFKGEVVDGTVNSCSQHGFEVQVGPMKVFVTKHLMPQDLTFNAGSNPPSYQSSEDVITIKSRIRVKIEGCISQVSSIHAIGSIKEDYLGAI | 0.385 | 0.253
5 | MFFIKDLSLNITLHPSFFGPRMKQYLKTKLLEEVEGSCTGKFGYILCVLDYDNIDIQRGRILPTDGSAEFNVKYRAVVFKPFKGEVVDGTVRSCSQHGFEVQVGPMKVFVTKHLMPQDLTFNAGSNPPSYQSSEDVITIKSRIRVKIEGCISQVSSIHAIGSIKEDYLGAI | 0.388 | 0.262
6 | MFFIKDLSLNITLHPSFFGPRMKQYLKTKLLEEVEGSCTGKFGYILCVLDYDNIDIQRGRILPTDGSAEFNVKYRAVVFKPFKGEVVDGTVSSCSQHGFEVQVGPMKVFVTKHLMPQDLTFNAGSNPPSYQSSEDVITIKSRIRVKIEGCISQVSSIHAIGSIKEDYLGAI | -0.0465 | -0.0495
7 | MFFIKDLSLNITLHPSFFGPRMKQYLKTKLLEEVEGSCTGKFGYILCVLDYDNIDIQRGRILPTDGSAEFNVKYRAVVFKPFKGEVVDGTVTSCSQHGFEVQVGPMKVFVTKHLMPQDLTFNAGSNPPSYQSSEDVITIKSRIRVKIEGCISQVSSIHAIGSIKEDYLGAI | -0.221 | -0.218
8 | MFFIKDLSLNITLHPSFFGPRMKQYLKTKLLEEVEGSCTGKFGYILCVLDYDNIDIQRGRILPTDGSAEFNVKYRAVVFKPFKGEVVDGTVYSCSQHGFEVQVGPMKVFVTKHLMPQDLTFNAGSNPPSYQSSEDVITIKSRIRVKIEGCISQVSSIHAIGSIKEDYLGAI | 0.0874 | 0.0832
9 | MFFIKDLSLNITLHPSFFGPRMKQYLKTKLLEEVEGSCTGKFGYILCVLDYDNIDIQRGRILPTDGSAEFNVKYRAVVFKPFKGEVVDGTVVACSQHGFEVQVGPMKVFVTKHLMPQDLTFNAGSNPPSYQSSEDVITIKSRIRVKIEGCISQVSSIHAIGSIKEDYLGAI | 0.017 | 0.0585
